This passage reports cell number change and AC50 results from PubChem BioAssay AID2685 (National Center for Advancing Translational Sciences (NCATS), 2010).

Structures are written as SMILES. The list shows a part of the results. Shown are side measurements of this screen, not its main read-out; they come without a call. The list favours compounds with an active or inconclusive main result. Potencies come from curve fits of mixed quality, noted in brackets.

The test is described as follows: qHTS Assay for Lipid Storage Modulators in Drosophila S3 Cells.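 For cell number change: cells counted by Cell Tracker Red CMTPX staining in the red channel.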 The settings on record: BODIPY lipid droplet fluorescence, 18-24 h; for cell number change: measured here: cell count max response, cells fed with added oleic acid. The essentials:
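Drosophila S3 cells got compounds at several concentrations plus oleic acid (400 uM solution). Laser-scanning cytometry with 488 nm excitation read lipid droplets at 500-530 nm and cells at 575-640 nm. Percent activity was relative to 20 uM Triacsin C.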
(In general: Quantitative high-throughput screening tests each substance at several concentrations.)

The mark [1] stands for this setting: measured here: cell number channel AC50, cells fed with added oleic acid.
Where [2] appears, read: measured here: lipid fluorescence (Fed channel) AC50, cells fed with added oleic acid.

On to `CCc1c(C)sc2nc(C(C)C)nc(SCC(=O)N3CCc4ccccc4C3)c12`, for which the cell number change is -12%. In addition, the concentration at half-maximal activity (AC50) (in general, the concentration at which the activity in the assay is half-maximal) under setting [1] was 1.84 µM [rising, partial curve].

In the case of `Cc1cccc(C(=O)NCc2nnc(SCC(=O)NC3CCCC3)n2C)c1`, the cell number change amounted to 23.7%. The concentration at half-maximal activity (AC50) under setting [1] was 1.3 µM [rising, full curve, poor fit].

Turning to `CC(=O)Nc1ccc(/C=N/N2C(C)CCCC2C)cc1` (centres undefined), the cell number change is -50.7%. Besides, the concentration at half-maximal activity (AC50) under setting [1] was 0.366 µM [falling, full curve]. In addition, under setting [2], the half-maximal activity concentration (AC50) is 0.116 µM [falling, full curve].

`Cc1cc(/C=N/NC(=O)CC#N)c(C)n1-c1ccc([N+](=O)[O-])cc1`: the cell number change was 2.21%. Under setting [1], the half-maximal activity concentration (AC50) is 0.146 µM [falling, full curve, poor fit].

With `CC[C@@H](C)C(NC(=O)OC(C)(C)C)c1cn([C@@H](Cc2cc3ccccc3[nH]2)C(=O)N2CCN(C(=O)OC(C)(C)C)CC2)nn1` (some centres undefined), the cell number change is -49.8%. The half-maximal activity concentration (AC50) under setting [1] is 32.6 µM [falling, partial curve]. Moreover, the AC50 under setting [2] was 20.6 µM [falling, partial curve].

Regarding `CCOc1ccc(NC(=O)c2ccc3c(=O)n(-c4ccc(OC)cc4OC)c(=S)[nH]c3c2)cc1`, the cell number change was determined as 20.8%. Also, under setting [2], the half-maximal activity concentration (AC50) was 0.411 µM [falling, partial curve, poor fit].

As to `CCOC(=O)c1ccc(CS(=O)c2ccc(Cl)cc2)o1` (centres undefined), the cell number change amounted to 6.99%. In addition, the AC50 under setting [2] is 0.58 µM [rising, single point].

Take `COCCCn1c(CCC(=O)O)ccc1-c1ccc(F)cc1`: the cell number change was 3.25%. Besides, the concentration at half-maximal activity (AC50) under setting [2] was 3.26 µM [rising, single point].

For the compound `Clc1ccccc1OCCn1ccnc1`, the cell number change was -3.16%. The AC50 under setting [2] was 3.26 µM [rising, single point].

Regarding `COc1cc(NC(=O)C2CC2)c(OC)cc1NC(=O)CCC(=O)NC1CCN(Cc2ccccc2)CC1`, the cell number change was determined as 82.4%. The AC50 under setting [1] was 2.31 µM [rising, full curve]. Moreover, under setting [2], the half-maximal activity concentration (AC50) was 2.59 µM [rising, partial curve].

On to `CC(=O)Nc1ccc(/C=C/C(=O)c2ccccc2)cc1`, for which the cell number change is -14.5%. Further, the AC50 under setting [2] was 29.1 µM [falling, single point].

As to `CCOC(=O)c1c(NC(=O)CSc2nc3ccc(C)cc3[nH]2)sc2c1CC(C)(C)NC2(C)C`, the cell number change was -31.9%. The concentration at half-maximal activity (AC50) under setting [1] was 20.6 µM [falling, partial curve, poor fit].

As for `Cc1ccc(Cn2cccc(NC(=O)CCC3CCCC3)c2=O)cc1`, the cell number change is -11.6%. Moreover, the concentration at half-maximal activity (AC50) under setting [2] is 0.651 µM [falling, partial curve, poor fit].

In the case of `S=C(Nc1ccc(Cl)cc1)Nc1ccc2cn[nH]c2c1`, the cell number change worked out at 4.46%.

Turning to `COCCNC(=O)c1cc(OC)c(OC)cc1[N+](=O)[O-]`, the cell number change was -7.99%. For the same compound, the half-maximal activity concentration (AC50) under setting [2] was 29.1 µM [falling, single point].

For `O=C(NNC(=O)c1ccccc1)C(=O)N1CCCCC1`, the cell number change was -4.83%.

For the compound `COc1cc(OC)cc(C(=O)NNC(=O)c2ccccc2Br)c1`, the cell number change came to 2.86%. Further, the half-maximal activity concentration (AC50) under setting [2] was 2.91 µM [rising, partial curve].

On to `COCCN(Cc1nnc(-c2cccs2)o1)C(=O)c1cccc(S(=O)(=O)N2CCOCC2)c1`, for which the cell number change was -13.7%. Moreover, the concentration at half-maximal activity (AC50) under setting [2] was 0.517 µM [rising, full curve].

On to `Fc1ccc(C2CCCN2Cc2nc(-c3cnccn3)no2)cc1` (centres undefined), for which the cell number change was 19.6%. Besides, the AC50 under setting [2] was 14.6 µM [rising, partial curve, poor fit].

On to `CCCn1c(=O)c2ccccc2n2c(SCC(=O)c3cc(C)n(CCOC)c3C)nnc12`, for which the cell number change is -15.2%.

For `COC(=O)N/N=C/c1ccc(-c2ccc(Cl)cc2Cl)o1`, the cell number change is 8.19%. The half-maximal activity concentration (AC50) under setting [2] is 18.4 µM [rising, single point].

For `CCN(Cc1ccccc1)C(c1cc2cc(C)ccc2[nH]c1=O)c1nnnn1CCOC` (centres undefined), the cell number change is -23.6%.

`Cc1cc(NC(=O)COC(=O)c2cccc(O)c2)no1`: the cell number change was -31.9%. Moreover, the AC50 under setting [1] is 32.6 µM [falling, single point]. For the same compound, the half-maximal activity concentration (AC50) under setting [2] was 25.9 µM [falling, single point].

As to `CCCN1C/C(=C/c2ccc3c(c2)OCO3)C(=O)/C(=C/c2ccc3c(c2)OCO3)C1`, the cell number change is 7.98%.

On to `CCOc1ccc(NC(=O)CC(Cc2ccc(Cl)cc2)C(=O)O)cc1` (centres undefined), for which the cell number change was -13.5%.

Turning to `CC(=O)N1c2ccc(S(=O)(=O)N3CCC(C(=O)N4CCCCC4)CC3)cc2CC1C` (centres undefined), the cell number change was 6.45%.

In the case of `O=C(Oc1cccc2cccnc12)c1cccc([N+](=O)[O-])c1`, the cell number change is -5.85%. Further, the AC50 under setting [2] is 4.11 µM [falling, single point].

With `O=C(O)C1CC(=O)N(c2ccc(OCc3c(F)cccc3Cl)cc2)C1` (centres undefined), the cell number change was -97.9%. Besides, the AC50 under setting [1] is 8.2 µM [falling, partial curve].

Turning to `CCN1C(=NCc2cc(OC)c(OC)c(OC)c2)N[C@@H](c2ccccc2)[C@H](C(=O)OC)[C@H]1C`, the cell number change is -9.21%.

On to `CCNC(=O)NC(=O)CSc1ccc2ccccc2c1`, for which the cell number change stood at 87%. Further, the AC50 under setting [1] is 16.4 µM [rising, single point]. Moreover, the AC50 under setting [2] is 18.4 µM [rising, partial curve].

As for `Cc1cc(C)c2c(c1)cc(C)c1nnc(SCC(=O)N3CCCc4ccccc43)n12`, the cell number change was -0.688%. For the same compound, the half-maximal activity concentration (AC50) under setting [2] is 0.082 µM [rising, full curve, poor fit].

For `COc1cc2c(cc1NC(=O)CCCN1C(=O)CCC1=O)oc1ccccc12`, the AC50 under setting [2] is 0.58 µM [rising, single point].

Regarding `O=C(O)Cc1cn(-c2ccccc2)nc1-c1ccccc1`, under setting [1], the AC50 is 0.116 µM [rising, single point].

Consider `Oc1ccc2ccccc2c1C=Nc1ccccc1-c1nc2ccccc2[nH]1`, for which the cell number change worked out at 9.31%. Further, the AC50 under setting [1] is 1.84 µM [rising, partial curve].

Take `CN(C)S(=O)(=O)c1ccc(C(=O)Nc2cc3c(cc2C(=O)O)OCCCO3)cc1`: the cell number change was 11.1%.

Consider `Cc1nc2ccccc2nc1OCC(=O)NCc1ccc2c(c1)OCO2`, for which the cell number change came to 33.2%. Besides, under setting [1], the AC50 was 5.17 µM [rising, single point].

As for `COc1cccc(NC(=O)Nc2nnc(CC(=O)NCc3ccccc3)s2)c1`, the cell number change is 14.4%. Besides, the AC50 under setting [2] is 2.91 µM [rising, full curve, poor fit].

On to `CC1Cc2ccccc2N1C(=O)c1cnc2n(c1=O)CCS2` (centres undefined), for which the cell number change is 6.22%. Moreover, the concentration at half-maximal activity (AC50) under setting [2] is 25.9 µM [rising, partial curve, poor fit].

Turning to `O=C(CSC1=NS(=O)(=O)c2cc(F)ccc2N1)NCc1ccccc1Cl`, the cell number change was -10.5%. Further, the half-maximal activity concentration (AC50) under setting [2] was 0.731 µM [falling, full curve, poor fit].

Regarding `Cc1c(C(=O)N2CCCCC2)oc2ccc(S(=O)(=O)N3CC(C)CC(C)C3)cc12` (centres undefined), the cell number change was -29.1%. Besides, the AC50 under setting [2] was 16.4 µM [falling, single point].
